Source: PubChem BioAssay AID504467 (National Center for Advancing Translational Sciences (NCATS), 2011)
About 7,700 (2.3%) of roughly 330,000 compounds were called active. This list was built around the results that the source calls inconclusive (neither active nor inactive); the mix of calls is not that of the screen. Calls come from the whole dose curve; as a rule, active = well fitted inhibition curve with a large enough effect; inconclusive = small, poorly fitted or top-dose-only effect, or effect the other way; inactive = flat fitted curve, though single readings scatter. Where the call is inconclusive, the potency comes from a doubtful curve fit.

experiment: qHTS screen for small molecules that inhibit ELG1-dependent DNA repair in human embryonic kidney (HEK293T) cells expressing luciferase-tagged ELG1; conditions: HEK293T ELG1-luciferase reporter, luminescence, 16 h, DNA damage induced by 5-fluorouridine; series mostly up to 46.1 µM; note: nearly all actives have a fitted effect of over 55% in size
Outline: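 Overnight (16 hr) co-exposure of 2,000 cells/well to 5-fluorouridine and compound at 37 °C preceded detection. Luciferase was quantified via ONE-Glo luminescence; loss of signal denotes inhibition.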
Potency is the fitted concentration of half-maximal effect.

Structure (SMILES) | Potency
O=C(NCc1nnc(SCC(=O)N2CCN(c3ccccc3)CC2)o1)c1c(F)cccc1F | inconclusive: 29.1 µM [inhibitor, single point]
CCN(CC)C(=O)c1ccc2nc3ccccc3nc2c1 | inconclusive: 16.4 µM [activator, single point]
O=C(c1ccc(N2CCCC2)c([N+](=O)[O-])c1)N1CCc2ccccc2C1 | inactive
COc1cc2c(cc1OC)C(c1ccccc1)NC(C)(C)C2 (configuration not stated) | inactive
CCCc1c(C(=O)N/N=C/c2ccncc2)nnn1-c1nonc1N | inactive
COc1ccc(N2C(=O)C(=O)/C(=C(/O)c3ccc(C)cc3)C2c2cccnc2)cc1 (configuration not stated) | inconclusive: 25.9 µM [activator, single point]
FC(F)(F)c1ccccc1-n1ccnc1 | inactive
COc1cccc(CNC(=S)NC2CCCC2)c1 | inactive
Cc1cc2nc(-c3ccc(SCC(=O)Nc4nccs4)nc3)[nH]c2cc1C | inconclusive: 1.84 µM [activator, full curve]
Cc1cccc(/C=C/c2onc(C)c2S(=O)(=O)N2CCC(C(=O)N3CCC(C)CC3)CC2)c1 | active: 1.83 µM
COc1ccc(CCN2C(=O)C3C4CCC(C4=C(C)C)C3C2=O)cc1OC (configuration not stated) | inactive
Cc1nn(-c2ccccc2)c(Cl)c1/C=C1\SC(=S)NC1=O | inconclusive: 16.4 µM [inhibitor, partial curve, poor fit]
O=C(/C=C/c1cccs1)c1ccc(NC(=O)c2ccccc2F)cc1 | inconclusive: 20.6 µM [activator, partial curve]
COc1ccc2c(c1)C(C)=CC(C)(C)N2C(=O)CN1C(=O)CCC1=O | inactive
CCOc1ccc(NC(=O)c2ccc(CC)s2)c([N+](=O)[O-])c1 | inconclusive: 8.2 µM [activator, partial curve]
COc1ccc2oc(C(=O)N3CCCc4ccccc43)c(C)c2c1 | inconclusive: 18.3 µM [activator, partial curve]
CC(=O)Nc1ccc(S(=O)(=O)N[C@@H](C)C(=O)OCC(=O)c2ccc[nH]2)cc1 | inconclusive: 18.3 µM [activator, partial curve, poor fit]
CC(C)C(=O)c1cc2c(cc1NC(=O)c1ccccc1)OCCO2 | inactive
CCCCCCCCn1c2c(c(=N)c3c1CCC3)CCCC2 | inconclusive: 1.3 µM [inhibitor, partial curve, poor fit]
COCc1ccc(C(=O)Nc2ccc(C(=O)O)cc2)o1 | inconclusive: 16.4 µM [activator, partial curve, poor fit]
C[C@@H]1O[C@@H](Oc2c(-c3cc(O)c(O)c(O)c3)oc3cc(O)cc(O)c3c2=O)[C@H](O)[C@H](O)[C@H]1O | inactive
O=C(NCc1ccco1)c1cc(-c2ccco2)on1 | inconclusive: 18.4 µM [activator, partial curve]
COc1ccc2oc(CS(=O)c3ccccc3)c(C(=O)O)c2c1 (configuration not stated) | inconclusive: 23.1 µM [activator, single point]
Cc1ccc(CCNC(=O)C2CCN(S(=O)(=O)c3ccc4c(c3)CCC(=O)N4)CC2)cc1 | inconclusive: 32.6 µM [activator, single point]

Structure (SMILES) | Potency
Cc1noc(NS(=O)(=O)c2ccc(N/C=C\C(=O)c3ccncc3)cc2)c1C | inactive
O=C1CC(c2ccc(F)cc2)C(n2cncn2)C(O)=C1C1NCCc2ccccc21 (configuration not stated) | inactive
COc1cc2cc(C(=O)N3CCOCC3)cc(-c3ccc(C)cc3)c2cc1OC | active: 14.6 µM
CCNC(=O)/C(C#N)=C/c1c(N2CCN(c3ccccc3)CC2)nc2c(C)cccn2c1=O | inconclusive: 25.9 µM [inhibitor, single point]
COc1ccc(NC(=O)c2ccco2)cc1N | inconclusive: 22.4 µM [activator, partial curve, poor fit]
CCOc1ccc(/C=N/NC(=O)C2CCCC2)c(OCC)c1 | inactive
O=C(Nc1ccc(Cl)c(Cl)c1)N1N=CCC1c1ccccc1 (configuration not stated) | inconclusive: 23.1 µM [inhibitor, partial curve, poor fit]
CCOC(=O)C1=C(C)Nc2ncnn2C1c1cc(Br)ccc1F (configuration not stated) | inactive
Cn1c(=O)c(C(=O)COC(=O)c2cc(-c3ccco3)nc3ccccc23)c(N)n(Cc2ccccc2)c1=O | inconclusive: 8.2 µM [inhibitor, partial curve, poor fit]
CCOC(=O)Cn1nc(-c2ccccc2)nc1-c1ccccc1 | inconclusive: 18.4 µM [activator, partial curve]
CC(=O)NCCc1nc2cc(NC(=O)c3cccs3)ccc2n1C | inconclusive: 4.11 µM [activator, partial curve]
COc1ccccc1C(=O)NCCC(=O)Nc1nc2ccccc2[nH]1 | inconclusive: 20.6 µM [activator, single point]
Nc1ccnn1-c1ccccc1 | inconclusive: 13 µM [activator, partial curve]
O=c1oc2ccccc2cc1-c1cn2ccccc2n1 | inconclusive: 0.082 µM [activator, full curve]
Nc1ccccc1SCc1cn2cccnc2n1 | inconclusive: 9.2 µM [activator, partial curve]
COc1ccc(OC)c(N=Cc2c(O)[nH]c3ccccc23)c1 | inconclusive: 9.2 µM [activator, single point]
CCN(CC)c1ccc(/C=N/NC(=S)NCc2ccccc2)c(O)c1 | inconclusive: 20.6 µM [inhibitor, single point]
COc1ccc(C[C@](C)(N)C(=O)O)cc1OC | inactive
O=[N+]([O-])c1ccccc1N/N=C/c1ccccc1 | inconclusive: 25.9 µM [activator, partial curve]
CC1(C)C2CCC1(CS(=O)(=O)NCc1ccc(S(N)(=O)=O)cc1)C(=O)C2 (configuration not stated) | inactive
Brc1ccc(-c2nnc(Cc3ccccc3)o2)cc1 | inconclusive: 23.1 µM [activator, single point]
COc1ccc(-c2csc(NC(=S)NC(=O)c3cccs3)n2)cc1OC | active: 20.6 µM
O=Cc1c(NCc2ccco2)nc2ccccn2c1=O | inconclusive: 25.9 µM [activator, partial curve, poor fit]
CCOC(=O)CSc1nnc(CNc2ccc(F)cc2)o1 | inconclusive: 29.1 µM [activator, partial curve, poor fit]

Structure (SMILES) | Potency
CC(Sc1ccccn1)C(=O)Nc1ccc2c(c1)OCO2 (configuration not stated) | inconclusive: 18.3 µM [activator, single point]
O=C(Nc1ccc(Cl)cc1)c1ccc(CN2CCc3ccccc3C2)cc1 | inconclusive: 2.06 µM [inhibitor, partial curve, poor fit]
O=C(CN1CCOCC1)Nc1ncc(Br)cc1Br | inactive
Clc1ccc2c(c1)C1OCCC1C(c1ccco1)N2 (configuration not stated) | inconclusive: 10.3 µM [activator, partial curve, poor fit]
Cc1ccc(CN(Cc2cccnc2)C(=S)Nc2cc(Cl)ccc2C)cc1 | inconclusive: 29.1 µM [inhibitor, single point]
CCCn1c(SCC(=O)Nc2ccccc2N2CCOCC2)nc2c1c(=O)n(C)c(=O)n2C | inconclusive: 16.4 µM [inhibitor, partial curve, poor fit]
O=[N+]([O-])c1ccc(N2CCN(c3ccccc3)CC2)nc1 | inconclusive: 6.51 µM [inhibitor, full curve, poor fit]
O=C(CCN1CCN(c2ccccc2)CC1)NNC(=S)Nc1ccccc1 | inconclusive: 29.1 µM [inhibitor, single point]
COc1ccc(C)cc1-n1c(C)cc(C=O)c1C | inactive
COc1ccc(C(=O)CSc2ncnc3nc[nH]c23)cc1 | inconclusive: 32.6 µM [inhibitor, single point]
NC(=O)c1nsc(C(=O)N(c2cccc(O)c2)C(C(=O)NC2CCCC2)c2ccc(Cl)cc2)c1N (configuration not stated) | inactive
Cn1c(-c2ccc([N+](=O)[O-])cc2)nc2ccccc21 | inconclusive: 16.4 µM [activator, partial curve]
Fc1ccc(-c2cc3nc(-c4ccccc4)cc(N4CCOCC4)n3n2)cc1 | inconclusive: 18.4 µM [inhibitor, single point]
O=S(=O)(Nc1cccnc1Cl)c1ccc(F)cc1 | inactive
COc1ccc(O)c(C(=O)c2cnn(-c3ccc(Cl)cc3)c2)c1 | inactive
COC(=O)COc1ccc(S(=O)(=O)Nc2ccc(C(N)=O)cc2)cc1 | inactive
COc1ccccc1NC(=O)CSc1nnc(-c2ccccc2)o1 | inconclusive: 16.4 µM [activator, partial curve]
Cc1sc2nc(SCc3ccccc3)n(Cc3ccco3)c(=O)c2c1C | inactive
O=C1c2ccccc2C(=O)N1OCc1ccccc1[N+](=O)[O-] | inactive
CCOc1ccc(C(=O)N2CCN(c3cccc(Cl)c3)CC2)cc1 | inconclusive: 9.2 µM [activator, partial curve, poor fit]
CC(C)C(=O)NC(c1ccco1)c1ccc2cccnc2c1O (configuration not stated) | active: 2.91 µM
Cc1ccc(Cl)c(OCC(=O)N2CCc3ccccc3C2)c1 | inconclusive: 23.1 µM [activator, partial curve]
O=S(=O)(/C=C/c1ccccc1)N1CCN(c2nc(-c3cccnc3)nc3ccccc23)CC1 | inconclusive: 18.3 µM [inhibitor, single point]
CC1=C(C)CC(C(=O)Nc2ccc3c(c2)OCO3)C(C(=O)O)C1 (configuration not stated) | inconclusive: 29.1 µM [activator, single point]

Molecules above containing two or more sulfur atoms:
Structure (SMILES) | Potency
Cc1cc2nc(-c3ccc(SCC(=O)Nc4nccs4)nc3)[nH]c2cc1C | inconclusive: 1.84 µM [activator, full curve]
Cc1nn(-c2ccccc2)c(Cl)c1/C=C1\SC(=S)NC1=O | inconclusive: 16.4 µM [inhibitor, partial curve, poor fit]
CC1(C)C2CCC1(CS(=O)(=O)NCc1ccc(S(N)(=O)=O)cc1)C(=O)C2 (configuration not stated) | inactive
COc1ccc(-c2csc(NC(=S)NC(=O)c3cccs3)n2)cc1OC | active: 20.6 µM
Cc1sc2nc(SCc3ccccc3)n(Cc3ccco3)c(=O)c2c1C | inactive
